# Measured values reported in PubChem BioAssay AID1487 (National Center for Advancing Translational Sciences (NCATS), 2009).
# The list shows a part of the results. Shown are side measurements of this screen, not its main read-out; they come without a call. Most of these compounds were active or inconclusive in the main read-out, so they are no random draw. Words in brackets tell the shape of the fitted curve; partial curves, single points and poor fits give uncertain potencies.
# Assay: qHTS Assay for Modulators of Lamin A Splicing
# Settings: HeLa LMNA splicing GFP/RFP minigene ratio, 48 h
# In short: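 Read-out is the ratio of GFP to DsRed2 object intensity, acquired by 488 nm laser-scanning cytometry on HeLa lamin A-EGFP minigene reporter cells. Compound incubation 48 hrs at 37 °C in Opti-MEM with 2% FBS; DMSO 0.5% final.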
# [1] = measured here: RFP viability control channel
# [2] = measured here: GFP splicing reporter channel
Compound,AC50 [1],AC50 [2]
CC(=C/c1ccc(C(C)C)cc1)/C=N/NC(=O)c1ccncc1,"10 µM [rising, partial curve]",–
O=c1[nH]c(SCc2c(Cl)cccc2Cl)nc2ccccc12,"2.82 µM [rising, single point]",–
COc1ccccc1NS(=O)(=O)c1cc(N2Cc3ccccc3C2=N)ccc1N1CCOCC1,"1.41 µM [rising, partial curve]",–
O=C1C(Cl)=C(Nc2cccc(O)c2)C(=O)N1Cc1ccccc1,"14.1 µM [rising, partial curve]",–
CC(=O)N1N=C(c2ccc(Br)cc2)CC1c1cn(C)c2ccccc12 (stereo not given),"22.4 µM [rising, single point]","22.4 µM [rising, single point]"
O=c1[nH]c(CSc2nnc(Nc3ccccc3)s2)nc2ccccc12,"0.0501 µM [falling, partial curve, poor fit]",–
O=C(NCCCN1CCOCC1)c1ccc(Cl)cc1[N+](=O)[O-],"5.62 µM [falling, partial curve, poor fit]",–
CCOc1ccc2c(c1)C(c1ccc(C)cc1)=NNC(c1ccc(C)cc1)=N2,"14.1 µM [rising, partial curve, poor fit]",–
COc1cc2c(cc1OC)C1=C(C#N)CCC(=NC(=O)c3ccco3)N1CC2,"0.00282 µM [rising, full curve, poor fit]","7.94 µM [rising, partial curve, poor fit]"
COc1ccc(OC)c(-c2cc(C(=O)Nc3c(C)nn(Cc4ccccc4)c3C)no2)c1,"12.6 µM [rising, single point]","11.2 µM [rising, partial curve]"
CN(C)c1ccc(-c2nc(N3CCNCC3)c3ccccc3n2)cc1,"31.6 µM [rising, single point]","20 µM [falling, single point]"
Cc1cc(Cl)ccc1OCC(=O)N1CCCCC1,"22.4 µM [falling, single point]","22.4 µM [falling, single point]"
CCN(CC)S(=O)(=O)c1ccc(NC(=O)COC(=O)CNS(=O)(=O)/C=C/c2ccccc2)cc1,"0.00891 µM [rising, full curve, poor fit]",–
O=C(NC(=S)N1CCN(c2ccc([N+](=O)[O-])cc2)CC1)c1ccccc1F,"35.5 µM [rising, single point]","22.4 µM [rising, single point]"
S=C(NCC1CCCO1)Nc1cccc(Cl)c1 (stereo not given),–,"39.8 µM [falling, partial curve, poor fit]"
CCCn1c(=N)c(C(=O)NC2CCCC2)cc2c(=O)n3cccc(C)c3nc21,"17.8 µM [rising, single point]",–
Cn1c(=O)oc2cc(S(=O)(=O)NCCC(=O)Nc3ccc4c(c3)OCCO4)ccc21,–,"1.41 µM [falling, single point]"
COc1cc(S(=O)(=O)N2CCN(c3ccccc3F)CC2)c(OC)cc1Cl,"20 µM [rising, partial curve]","15.8 µM [rising, single point]"
Cc1[nH]n(-c2ccccc2)c(=O)c1N=Nc1ccccc1O,"0.631 µM [falling, single point]","8.91 µM [falling, partial curve]"
CC(C)(C)NC(=O)C(c1ccncc1)N(C(=O)C1CSC(=O)C1)c1ccccc1 (stereo not given),"3.16 µM [falling, full curve]","6.31 µM [falling, partial curve]"
COc1cc2c3nnc(-c4ccc(F)cc4)c-3cn(Cc3ccccc3F)c2cc1OC,–,"0.00891 µM [rising, full curve, poor fit]"
Cc1nnc(N(C)C(=O)c2ccc3c(c2)OCO3)s1,–,"25.1 µM [falling, partial curve, poor fit]"
CCCS(=O)(=O)Nc1c(C(=O)OC)[nH]c2ccccc12,"11.2 µM [rising, partial curve]",–
Cc1ccc(C23CC4CC(CC(CC(=O)N5CCOCC5)(C4)C2)C3)cc1,"35.5 µM [rising, single point]","35.5 µM [rising, single point]"
Nc1ccc(C(=O)OCc2nc3c(ccc4ccccc43)[nH]2)cc1,"14.1 µM [rising, single point]",–
C[C@H](CO)NC(=O)[C@H](C)[C@@H]1C[C@@]1(C)[C@@H](NC(=O)OCc1ccccc1)c1ccccc1,"17.8 µM [rising, partial curve, poor fit]","12.6 µM [rising, single point]"
CC(C)C(=O)Nc1nc(-c2ccccc2)ns1,"35.5 µM [rising, single point]",–

Compound,AC50 [1],AC50 [2]
CC1CCN(CC(O)COC2CC(C)CCC2C(C)C)CC1 (stereo not given),–,"25.1 µM [falling, single point]"
Cc1ccc2nc(CSc3nnc(NC(=O)c4cccc(Br)c4)s3)cc(=O)n2c1,"0.0224 µM [rising, full curve]","0.0224 µM [rising, full curve, poor fit]"
CCN(C(=O)CSc1nc2ccccc2n1CC(=O)NCc1ccc(OC)cc1)c1ccccc1,–,"0.0891 µM [rising, full curve, poor fit]"
COC(CNC(=O)c1cc(Sc2nnc(C)s2)nc2ccccc12)OC,"10 µM [rising, single point]",–
CNC(=O)C1CCC(Cn2c(=O)c3sccc3n(CC(=O)NCc3cccc(OC)c3)c2=O)CC1 (stereo not given),–,"0.0355 µM [falling, full curve, poor fit]"
Nc1nc2c(c(=O)[nH]1)N(C=O)[C@H](CNc1ccc(C(=O)N[C@@H](CCC(=O)O)C(=O)O)cc1)CN2,"7.08 µM [falling, single point]","12.6 µM [falling, single point]"
CC(=O)NCCNc1nc(-c2ccc(N(C)C)cc2)nc2ccccc12,"12.6 µM [rising, partial curve]",–
CCCCCCCC/C=C\CCCCCCCC(=O)NCCO,–,"14.1 µM [rising, single point]"
CS(=O)(=O)N(CC(=O)N1CCOCC1)c1cccc([N+](=O)[O-])c1,–,"2.24 µM [rising, full curve]"
Cc1ccc(S(=O)(=O)N/N=C\c2ccccc2OCc2ccccc2)cc1,"17.8 µM [falling, single point]","22.4 µM [falling, single point]"
CCn1c(=O)cc(SCC(=O)NCc2ccco2)c2ccccc21,–,"3.98 µM [falling, single point]"
CC12CCC(C/C1=N\N=C1\NC(=O)/C(=C\c3ccc(Cl)cc3)S1)C2(C)C (stereo not given),"6.31 µM [rising, single point]",–
O=C1/C(=C\c2cccnc2)SC(=S)N1C1CCS(=O)(=O)C1 (stereo not given),"35.5 µM [falling, single point]","35.5 µM [falling, single point]"
CCC(=O)Nc1nc2ccccc2n1Cc1ccc(C)cc1,"35.5 µM [rising, single point]","35.5 µM [rising, single point]"
Cc1cc(C)cc(OCC2CNC(=O)O2)c1 (stereo not given),"35.5 µM [falling, single point]","35.5 µM [falling, single point]"
CCOc1ccccc1NC(=O)N1CCCC(c2nc3c(nnn3Cc3ccc(C)cc3)c(=O)[nH]2)C1 (stereo not given),–,"2.24 µM [rising, partial curve, poor fit]"
COc1ccccc1-c1ccc2ncnc(NC3CC3)c2c1,–,"11.2 µM [falling, partial curve]"
COc1ccc(C(=O)NCc2nnc(SCC(=O)Nc3ccccc3OC)n2C)cc1,"35.5 µM [rising, partial curve]",–
CCOC(=O)Oc1c(OC)cc(C(=O)O[C@H]2C[C@H]3CN4CCc5c([nH]c6cc(OC)ccc56)[C@@H]4C[C@H]3[C@@H](C(=O)OC)[C@@H]2OC)cc1OC,–,"0.562 µM [falling, single point]"
CCc1ccc(N/C(N)=N/c2nc(CSc3ncccn3)cc(=O)[nH]2)cc1,"0.0708 µM [falling, full curve]","0.2 µM [falling, partial curve]"
Cc1ccccc1-c1nc(-n2ccnc2)c2ccccc2n1,"22.4 µM [falling, partial curve]","15.8 µM [falling, partial curve]"
CN1/C(=C\C(=O)c2ccccc2Cl)c2ccccc2CC1(C)C,"15.8 µM [rising, single point]",–
CC1CCN(c2cc(N3CCOCC3)c([N+](=O)[O-])cc2F)CC1,"17.8 µM [rising, partial curve]","12.6 µM [rising, single point]"
Cc1ccc(O)c(-n2nc3ccccc3n2)c1,"0.631 µM [falling, partial curve, poor fit]","1.12 µM [falling, partial curve, poor fit]"
COc1cccc(N2C(=O)N(CC(=O)NCc3cccc(OC)c3OC)c3ccccc3S2(=O)=O)c1,"5.62 µM [falling, partial curve]",–
O=[N+]([O-])c1ccccc1CSc1nc2ccccc2o1,"11.2 µM [rising, partial curve]",–
Cc1cccc(N2CCN(Cc3nc(-c4ccc(F)cc4F)oc3C)CC2)n1,"10 µM [falling, partial curve, poor fit]",–

# Four records picked at random from those above, as already listed:
Compound,AC50 [1],AC50 [2]
Cc1cccc(N2CCN(Cc3nc(-c4ccc(F)cc4F)oc3C)CC2)n1,"10 µM [falling, partial curve, poor fit]",–
Cc1cc(C)cc(OCC2CNC(=O)O2)c1 (stereo not given),"35.5 µM [falling, single point]","35.5 µM [falling, single point]"
CNC(=O)C1CCC(Cn2c(=O)c3sccc3n(CC(=O)NCc3cccc(OC)c3)c2=O)CC1 (stereo not given),–,"0.0355 µM [falling, full curve, poor fit]"
CCCCCCCC/C=C\CCCCCCCC(=O)NCCO,–,"14.1 µM [rising, single point]"
